According to patent US20170355771A1 (Biogen, published 2017):
Changes are numbered by the printed parent chain. Results are given in words; binding and its absence hold for the method and conditions named. Binding can be weak; no strength is given.

B1: humanized 34D10 Fab L3/H0 (Fab, V domains shown)
VH: EVQLVESGGGLVQPGGSLRLSCAASGFTFSAYAMSWVRQAPGKGLVWVSSISSGGTTYYPDSVKRQFTISRDNAKNTLYLQMNSLRAEDMAVYYCTRGGDYGYALDYWGQGTLVTVSS
VL: ENVMTQSPATLSASPGERVTMSCRASSSVNYMYWYQQKPGQSPRLLIYYTSNLAPGVPARFSGSGSGTEYTLTISSLQSEDFAVYYCQQFSSSPWTFGQGTKVEIK
B2: humanized 34D10 Fab L0/H1 (Fab, V domains shown)
VH: B1 VH with E6Q, G16E, V46E, Q66R
VL: B1 VL with N2I, A13V, V19A, M21L, S42A, V57I, Y70F
B3: humanized 34D10 Fab L3/H1 (Fab, V domains shown)
VH: B1 VH with E6Q, G16E, V46E, Q66R
VL: B1 VL
B4: humanized 34D10 Fab L3/H2 (Fab, V domains shown)
VH: B1 VH with Q13K, S49A, M90T
VL: B1 VL
B5: humanized 34D10 Fab L3/H3 (Fab, V domains shown)
VH: B1 VH with E6Q, Q13K, G16E, V46E, S49A, Q66R, M90T
VL: B1 VL
B6: humanized 34D10 Fab L3/H4 (Fab, V domains shown)
VH: B1 VH with E6Q, Q13K, G16E, V46E, S49A, Q66R, A74S, K75R, M90T
VL: B1 VL
B7: humanized 34D10 Fab L3/H5 (Fab, V domains shown)
VH: B1 VH with Q3K, Q13K, V46E, S49A, Q66R, K75R, M90T
VL: B1 VL
B8: mouse Fab (34D10) (Fab, V domains shown)
VH: EVKLVESGGGLVKPGGSLKLSCAASGFTFSAYAMSWVRQTPEKRLEWVASISSGGTTYYPDSVKRRFTISRDNARNILYLQMSSLRSEDTAMYYCTRGGDYGYALDYWGQGTSVTVSS
VL: ENVLTQSPAIMSASLGEKVTMSCRASSSVNYMYWYQQKSDASPKLWIYYTSNLAPGVPARFSGSGSGNSYSLTISSMEGEDAATYYCQQFSSSPWTFGGGTKLEIK
notes: Fab; also called mouse 34D10 Fab
B9: humanized 34D10 Fab L0/H2 (Fab, V domains shown)
VH: B1 VH with Q13K, S49A, M90T
VL: B1 VL with N2I, A13V, V19A, M21L, S42A, V57I, Y70F
notes: Fab; also called VL0/VH2
B10: humanized 34D10 Fab L0/H5 (Fab, V domains shown)
VH: B1 VH with Q3K, Q13K, V46E, S49A, Q66R, K75R, M90T
VL: B1 VL with N2I, A13V, V19A, M21L, S42A, V57I, Y70F
notes: Fab; also called VL0/VH5
B11: humanized 34D10 Fab L0/H3 (Fab, V domains shown)
VH: B1 VH with E6Q, Q13K, G16E, V46E, S49A, Q66R, M90T
VL: B1 VL with N2I, A13V, V19A, M21L, S42A, V57I, Y70F
B12: humanized 34D10 Fab L0/H4 (Fab, V domains shown)
VH: B1 VH with E6Q, Q13K, G16E, V46E, S49A, Q66R, A74S, K75R, M90T
VL: B1 VL with N2I, A13V, V19A, M21L, S42A, V57I, Y70F
B13: L0/H0 (Fab, V domains shown)
VH: B1 VH
VL: B1 VL with N2I, A13V, V19A, M21L, S42A, V57I, Y70F
B14: humanized 34D10 Fab L1/H3 (Fab, V domains shown)
VH: B1 VH with E6Q, Q13K, G16E, V46E, S49A, Q66R, M90T
VL: B1 VL with N2I, M4L, A13V, V19A, M21L, S42A, Y70F
notes: Fab; only variable domains are tied by name; also called VL1/VH3
B15: L1/H4 (Fab, V domains shown)
VH: B1 VH with E6Q, Q13K, G16E, V46E, S49A, Q66R, A74S, K75R, M90T
VL: B1 VL with N2I, M4L, A13V, V19A, M21L, S42A, Y70F
B16: L1/H5 (Fab, V domains shown)
VH: B1 VH with Q3K, Q13K, V46E, S49A, Q66R, K75R, M90T
VL: B1 VL with N2I, M4L, A13V, V19A, M21L, S42A, Y70F
B17: L2/H0 (Fab, V domains shown)
VH: B1 VH
VL: B1 VL with N2I, M4L
B18: L2/H1 (Fab, V domains shown)
VH: B1 VH with E6Q, G16E, V46E, Q66R
VL: B1 VL with N2I, M4L
B19: L2/H2 (Fab, V domains shown)
VH: B1 VH with Q13K, S49A, M90T
VL: B1 VL with N2I, M4L
B20: L2/H3 (Fab, V domains shown)
VH: B1 VH with E6Q, Q13K, G16E, V46E, S49A, Q66R, M90T
VL: B1 VL with N2I, M4L
B21: L2/H4 (Fab, V domains shown)
VH: B1 VH with E6Q, Q13K, G16E, V46E, S49A, Q66R, A74S, K75R, M90T
VL: B1 VL with N2I, M4L
B22: L2/H5 (Fab, V domains shown)
VH: B1 VH with Q3K, Q13K, V46E, S49A, Q66R, K75R, M90T
VL: B1 VL with N2I, M4L
B23: L1/H0 (Fab, V domains shown)
VH: B1 VH
VL: B1 VL with N2I, M4L, A13V, V19A, M21L, S42A, Y70F
B24: L1/H1 (Fab, V domains shown)
VH: B1 VH with E6Q, G16E, V46E, Q66R
VL: B1 VL with N2I, M4L, A13V, V19A, M21L, S42A, Y70F
B25: L1/H2 (Fab, V domains shown)
VH: B1 VH with Q13K, S49A, M90T
VL: B1 VL with N2I, M4L, A13V, V19A, M21L, S42A, Y70F

Target: GPIIb/IIIa on gel-purified human platelets (human)
Test: flow cytometry on gel-purified human platelets

binding, binds:
B1
B2
B3
B4
B5
B6
B7
B8
B9
B10
B11
B12

Target: GPIIb/IIIa on gel-purified human platelets (human)
Test: flow cytometry on human platelets (summary of Example 2)

binding, binds:
B8
B9
B10

Target: GPIIb/IIIa on gel-purified human platelets (human)
Test: flow cytometry on gel-purified human platelets, PE-labeled anti-human Fab detection; EC50 = Fab concentration at half-maximal MFI

binding, binds:
B13
B14
B15
B16
B17
B18
B19
B20
B21
B22
B1
B2
B3
B4
B5
B6
B7
B8
B9
B10
B11
B12
B23
B24
B25
